# According to patent publication US11041184B2, “Mycobacteriophages capable of delivering auto-luminescent elements and uses thereof” (priority 2016, dated 2021):
# At least one structure is not confirmed: it was looked up by name or label, or the drawing left a doubt.
# Test system: Mtb
# Experiment: detecting sensitivity of a host bacterial strain (Mtb) to a drug with the ARP phage, luminescence read with a luminometer
# Format: cell-based, Mycobacterium tuberculosis
# Conditions: RIF 2 μg/mL, INH 1 μg/mL, LZD 1 μg/mL, PNU 0.5 μg/mL
structure (smiles),measurement,setting,value
CO[C@H]1/C=C/O[C@@]2(C)Oc3c(C)c(O)c4c(O)c(c(/C=N/N5CCN(C)CC5)c(O)c4c3C2=O)NC(=O)/C(C)=C\C=C\[C@H](C)[C@H](O)[C@@H](C)[C@@H](O)[C@@H](C)[C@H](OC(C)=O)[C@@H]1C [rifampicin],sensitivity of Mtb to the drug at the concentration,"37° C., at least 4 hours",sensitivities
same,bioluminescence intensity compared to a control,"FIG. 12, culture at 37° C. for at least 4 hours, DMSO control",significant decrease of bioluminescence intensity
